In US8426644B2, “Compositions and methods for inhibiting an isoform of human manganese superoxide dismutase” (MitoTek, LLC, priority 2005, dated 2013):
Where a chain is given by its changes, count along the chain named. At least one structure is not confirmed: it was looked up by name or label, or the drawing left a doubt.

What was measured:
isoMnSOD [1] = target: T1, isoMnSOD (Mus musculus, UniProt P09671, DEL77-115); test: isoMnSOD peroxidative activity, cerebellum mitochondrial extracts on nitrocellulose strips (Example 20); assay type: biochemical; details: 1 μM of compound, 30 min at room temperature; cerebellum of 4 week mice; 1 mM hydrogen peroxide, luminol; FIG. 7
T1 construct: Mitochondrial pellets were lysed in 1% CHAPS detergent; from tissue; host or cells: mouse cerebellum mitochondria
T1 sequence (P09671 with tags, fused parts or gaps DEL77-115): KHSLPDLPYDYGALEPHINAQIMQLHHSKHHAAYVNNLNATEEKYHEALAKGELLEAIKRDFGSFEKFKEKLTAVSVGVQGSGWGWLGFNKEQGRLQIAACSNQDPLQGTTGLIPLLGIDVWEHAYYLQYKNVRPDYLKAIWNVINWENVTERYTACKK
Procedure: Protein extracts containing isoMnSOD were prepared from cerebellum from 4 week mice by first forming a liquid nitrogen powder, resuspended with five volumes of ice-cold lysis buffer (in mM: 20 HEPES-KOH, pH 7.5, 10 KCl, 1.5 MgCl2, 1 DTT, 1 EDTA, 1 EGTA, and 0.1 PMSF) containing 70 mM mannitol and 250 mM sucrose and homogenizing with a Dounce homogenizer. Extract was centrifuged at 750 g for 10 min at 4° C. and the supernatant was then centrifuged at 10,000 g for 15 min at 4° C. to pellet the mitochondrial pellet, which was then stored frozen. Mitochondrial pellets were lysed in 1% CHAPS detergent containing 50 mM Tris-Cl, pH 8.0, 500 mM NaCl and then loaded onto a native 5% polyacrylamide gel. Protein concentration was measured by using the Bradford protein assay kit. After transfer to nitrocellulose, nitrocellulose strips were incubated with 1 μM of compound in 50 mM Tris-HCl, 50 mM NaCl, 5 mM EDTA, pH 8.0 for 30 min at room temperature, then washed extensively with incubation buffer alone. The peroxidative activity of isoMnSOD was measured using 100 of Femtomole luminol (Pierce) containing 1 mM hydrogen peroxide per nitrocellulose strip and exposed to x-ray film.

isoMnSOD [2] = test: Inhibition of pro-oxidant activity of isoMnSOD, at least one of the assays of the Examples; details: according to at least one of the assays provided in the Examples
[3] = system: mitochondrial peroxidase activity (isoMnSOD); test: Peroxidative assay (ROS-activity blot) of mitochondrial extracts from treated pancreatic explants (Example 12); assay type: cell-based, pig; details: pancreatic explant cultured 1 hr at 37° C. with equal volume of 2 μM compound, FIG. 1
Procedure: F10 medium was used throughout the procedure. Pancreas (8 grams) from a 3 kilo pig was minced, washed twice, and 1 g of tissue was resuspended in 5 ml of F10 medium. […] Explants were stored frozen at −70° C. Tissue was homogenized in Buffer A at 4° C. and mitochondria was isolated by differential centrifugation and stored frozen at −70° C. Peroxidative assay of native mitochondrial extracts analyzed by the ROS-activity blot.

isoMnSOD [4] = test: Drug inhibition method: peroxidative activity of isoMnSOD on PVDF strips (Example 4); details: 1 μM test compound in TBS, 30 minutes; pancreatic mitochondria native extracts on PVDF; 1 mM H2O2, luminol; FIG. 4
[5] = target: T2, MnSOD-Exon3-deleted isoform (isoMnSOD) (Homo sapiens, UniProt P04179); test: Detection of inhibitors bound to isoMnSOD by combined immunoprecipitation/western blot (Example 13); assay type: binding; details: immunoprecipitation with anti-dopamine or anti-serotonin antibody, isoMnSOD detected; FIG. 2A, 2B
T2 sequence (P04179 25-183 isoform P04179-2 limits assumed): T1 sequence (P09671 with tags, fused parts or gaps DEL77-115) with A40V, H46Q, E66D, V75A, Q93R, R95H, S102P, T155M
Procedure: Covalent modification of the MnSOD-Exon3-deleted isoform was measured by a combined immunoprecipitation/western blot analysis. Immunoblots for detecting AA-DA, EPA-DA, DHA-DA, C18:4(ω-3)-DA adducts were performed using anti-dopamine rabbit polyclonal (Chemicon) and anti-serotonin goat polyclonal antibodies (ImmunoStar), respectively. After immunoprecipitating using an antibody against the inhibitor, isoMnSOD was detected as described above.

CCCCCCCCCCCC1=C(O)C(=O)C=C(O)C1=O [Embelin]
Inhibition (isoMnSOD [1]): no

CCCCC/C=C\C/C=C\C/C=C\C/C=C\CCCC(=O)NCCc1ccc(O)c(O)c1 [arachidonoyl-dopamine, arachidonoyl dopamine]
inhibition of pro-oxidant activity of isoMnSOD (isoMnSOD [2]): inhibit pro-oxidant activity of isoMnSOD | inhibition of mitochondrial peroxidase activity [3]: did not inhibit peroxidase activity to the same effect | inhibition of peroxidative activity of isoMnSOD (isoMnSOD [4]): inhibit peroxidative activity more significantly than the other compounds | binding to isoMnSOD (covalent modification) [5]: able to bind to isoMnSOD
